Reference: PMC2856662
No constants are given. Whether binding was seen depends on the method and setting. In cells and extracts the contact can be indirect. Binding can be weak; no strength is given. Sequences can lack the tags named with a protein.

How the values were obtained:
Experiment in all cases: pull-down; GST fusion proteins of CXCR2-CTD on glutathione beads mixed with 293-parental cell lysates (1 mg total protein) over-expressing HA-LASP-1 or its HA-tagged domains, 1 h at 4°C; anti-HA blot; only the target purified
[1] = biological target: GST-CXCR2-311-355 (full length WT carboxyl-terminal domain) (human)
[2] = biological target: GST-CXCR2-311-330 (first half of the CTD) (human)
[3] = biological target: GST-CXCR2 (318-355) (human)

Measured: binding

B1: HA-LASP-1 (full length, over-expressed in 293-parental cells) (protein, UniProt Q14847 1-261)
chain: MNPNCARCGKIVYPTEKVNCLDKFWHKACFHCETCKMTLNMKNYKGYEKKPYCNAHYPKQSFTMVADTPENLRLKQQSELQSQVRYKEEFEKNKGKGFSVVADTPELQRIKKTQDQISNIKYHEEFEKSRMGPSGGEGMEPERRDSQDGSSYRRPLEQQQPHHIPTSAPVYQQPQQQPVAQSYGGYKEPAAPVSIQRSAPGGGGKRYRAVYDYSAADEDEVSFQDGDTIVNVQQIDDGWMYGTVERTGDTGMLPANYVEAI
binds: all assays above
